Drawing on article PMC4648439, this text covers binding for 3 molecules.

Test [1] concerns the target T1, Flag-tagged flotillin-2 (pFLAG-CMV-Flot-2) (human (Flot-2 ORF amplified from 5-8F cell cDNA)) (UniProt Q14254).
T1 sequence: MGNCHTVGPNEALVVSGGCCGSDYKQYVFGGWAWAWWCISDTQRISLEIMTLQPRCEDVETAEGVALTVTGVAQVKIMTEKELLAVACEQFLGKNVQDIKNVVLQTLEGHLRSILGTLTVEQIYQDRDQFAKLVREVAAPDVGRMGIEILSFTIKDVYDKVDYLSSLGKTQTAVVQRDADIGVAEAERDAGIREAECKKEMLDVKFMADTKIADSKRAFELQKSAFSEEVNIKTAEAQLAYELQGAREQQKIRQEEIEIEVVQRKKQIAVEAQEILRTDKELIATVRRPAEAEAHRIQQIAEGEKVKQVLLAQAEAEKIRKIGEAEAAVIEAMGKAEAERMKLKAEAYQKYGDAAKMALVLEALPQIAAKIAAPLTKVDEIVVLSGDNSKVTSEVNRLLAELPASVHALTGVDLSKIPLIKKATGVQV
Description: co-IP; 293T cells transfected with pEF1/myc-His-Flot-1 and pFLAG-CMV-Flot-2, lysed after 48 h; lysates pre-cleared, then incubated with agarose IgA/IgG beads with anti-His or anti-Flag overnight at 4 °C; immunoblot. On the technique in general: Immunoblotting shows a protein as a band on a membrane.

The target of test [2] is T2, myc-His-tagged flotillin-1 (pEF1/myc-His-Flot-1) (UniProt O75955).
T2 sequence: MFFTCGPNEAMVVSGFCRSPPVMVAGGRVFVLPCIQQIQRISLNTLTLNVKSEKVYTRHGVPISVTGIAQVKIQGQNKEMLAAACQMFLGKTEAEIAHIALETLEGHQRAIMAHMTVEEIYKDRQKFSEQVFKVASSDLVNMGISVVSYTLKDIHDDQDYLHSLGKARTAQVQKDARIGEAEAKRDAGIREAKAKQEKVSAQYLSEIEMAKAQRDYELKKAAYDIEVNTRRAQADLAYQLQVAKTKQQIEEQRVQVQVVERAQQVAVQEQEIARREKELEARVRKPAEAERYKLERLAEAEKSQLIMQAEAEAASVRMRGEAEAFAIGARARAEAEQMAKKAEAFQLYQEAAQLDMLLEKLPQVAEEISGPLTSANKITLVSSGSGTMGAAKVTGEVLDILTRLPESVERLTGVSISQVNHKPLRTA
The test is described as above.

Test [3] concerns the target T3, flotillin-1, endogenous in 5-8F cells (human (endogenous in 5-8F)) (UniProt O75955).
T3 sequence: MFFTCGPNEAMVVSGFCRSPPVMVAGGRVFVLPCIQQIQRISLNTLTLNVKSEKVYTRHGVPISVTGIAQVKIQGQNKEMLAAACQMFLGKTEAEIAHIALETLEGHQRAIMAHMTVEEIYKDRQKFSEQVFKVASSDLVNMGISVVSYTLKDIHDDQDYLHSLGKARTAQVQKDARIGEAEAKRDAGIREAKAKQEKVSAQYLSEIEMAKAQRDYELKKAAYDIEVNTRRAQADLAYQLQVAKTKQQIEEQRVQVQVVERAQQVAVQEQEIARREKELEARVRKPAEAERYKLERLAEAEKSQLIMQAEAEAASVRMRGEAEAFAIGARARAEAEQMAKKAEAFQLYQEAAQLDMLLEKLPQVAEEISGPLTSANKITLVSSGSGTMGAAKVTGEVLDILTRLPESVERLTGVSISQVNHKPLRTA
Description: co-IP; endogenous proteins in 5-8F cell lysate; immunoprecipitated with anti-Flot-1 on agarose IgA/IgG beads, immunoblot for Flot-2.

Results are given in words; binding and its absence hold for the method and conditions named. In cells and extracts the contact can be indirect. Some entries that bind do so weakly or less than the wild type. For part of these data: Tags and fused reporters may be left off the sequences shown.

B1: myc-His-tagged flotillin-1 (pEF1/myc-His-Flot-1) (protein, UniProt O75955 1-427)
chain: MFFTCGPNEAMVVSGFCRSPPVMVAGGRVFVLPCIQQIQRISLNTLTLNVKSEKVYTRHGVPISVTGIAQVKIQGQNKEMLAAACQMFLGKTEAEIAHIALETLEGHQRAIMAHMTVEEIYKDRQKFSEQVFKVASSDLVNMGISVVSYTLKDIHDDQDYLHSLGKARTAQVQKDARIGEAEAKRDAGIREAKAKQEKVSAQYLSEIEMAKAQRDYELKKAAYDIEVNTRRAQADLAYQLQVAKTKQQIEEQRVQVQVVERAQQVAVQEQEIARREKELEARVRKPAEAERYKLERLAEAEKSQLIMQAEAEAASVRMRGEAEAFAIGARARAEAEQMAKKAEAFQLYQEAAQLDMLLEKLPQVAEEISGPLTSANKITLVSSGSGTMGAAKVTGEVLDILTRLPESVERLTGVSISQVNHKPLRTA
Take B1: in test [1], the binding result is “binds”.

B2: Flag-tagged flotillin-2 (pFLAG-CMV-Flot-2) (protein, UniProt Q14254 1-428)
chain: MGNCHTVGPNEALVVSGGCCGSDYKQYVFGGWAWAWWCISDTQRISLEIMTLQPRCEDVETAEGVALTVTGVAQVKIMTEKELLAVACEQFLGKNVQDIKNVVLQTLEGHLRSILGTLTVEQIYQDRDQFAKLVREVAAPDVGRMGIEILSFTIKDVYDKVDYLSSLGKTQTAVVQRDADIGVAEAERDAGIREAECKKEMLDVKFMADTKIADSKRAFELQKSAFSEEVNIKTAEAQLAYELQGAREQQKIRQEEIEIEVVQRKKQIAVEAQEILRTDKELIATVRRPAEAEAHRIQQIAEGEKVKQVLLAQAEAEKIRKIGEAEAAVIEAMGKAEAERMKLKAEAYQKYGDAAKMALVLEALPQIAAKIAAPLTKVDEIVVLSGDNSKVTSEVNRLLAELPASVHALTGVDLSKIPLIKKATGVQV
In the case of B2, the binding entry in test [2] is “binds”.

B3: flotillin-2, endogenous in 5-8F cells (protein, UniProt Q14254 1-428)
chain: MGNCHTVGPNEALVVSGGCCGSDYKQYVFGGWAWAWWCISDTQRISLEIMTLQPRCEDVETAEGVALTVTGVAQVKIMTEKELLAVACEQFLGKNVQDIKNVVLQTLEGHLRSILGTLTVEQIYQDRDQFAKLVREVAAPDVGRMGIEILSFTIKDVYDKVDYLSSLGKTQTAVVQRDADIGVAEAERDAGIREAECKKEMLDVKFMADTKIADSKRAFELQKSAFSEEVNIKTAEAQLAYELQGAREQQKIRQEEIEIEVVQRKKQIAVEAQEILRTDKELIATVRRPAEAEAHRIQQIAEGEKVKQVLLAQAEAEKIRKIGEAEAAVIEAMGKAEAERMKLKAEAYQKYGDAAKMALVLEALPQIAAKIAAPLTKVDEIVVLSGDNSKVTSEVNRLLAELPASVHALTGVDLSKIPLIKKATGVQV
With B3, in test [3], the binding entry was “binds”.
